Results are given in words; binding and its absence hold for the method and conditions named. Tags and fused reporters may be left off the sequences shown.
T1: LexA-Alk1 (Saccharomyces cerevisiae) (UniProt P43633)
T1 sequence: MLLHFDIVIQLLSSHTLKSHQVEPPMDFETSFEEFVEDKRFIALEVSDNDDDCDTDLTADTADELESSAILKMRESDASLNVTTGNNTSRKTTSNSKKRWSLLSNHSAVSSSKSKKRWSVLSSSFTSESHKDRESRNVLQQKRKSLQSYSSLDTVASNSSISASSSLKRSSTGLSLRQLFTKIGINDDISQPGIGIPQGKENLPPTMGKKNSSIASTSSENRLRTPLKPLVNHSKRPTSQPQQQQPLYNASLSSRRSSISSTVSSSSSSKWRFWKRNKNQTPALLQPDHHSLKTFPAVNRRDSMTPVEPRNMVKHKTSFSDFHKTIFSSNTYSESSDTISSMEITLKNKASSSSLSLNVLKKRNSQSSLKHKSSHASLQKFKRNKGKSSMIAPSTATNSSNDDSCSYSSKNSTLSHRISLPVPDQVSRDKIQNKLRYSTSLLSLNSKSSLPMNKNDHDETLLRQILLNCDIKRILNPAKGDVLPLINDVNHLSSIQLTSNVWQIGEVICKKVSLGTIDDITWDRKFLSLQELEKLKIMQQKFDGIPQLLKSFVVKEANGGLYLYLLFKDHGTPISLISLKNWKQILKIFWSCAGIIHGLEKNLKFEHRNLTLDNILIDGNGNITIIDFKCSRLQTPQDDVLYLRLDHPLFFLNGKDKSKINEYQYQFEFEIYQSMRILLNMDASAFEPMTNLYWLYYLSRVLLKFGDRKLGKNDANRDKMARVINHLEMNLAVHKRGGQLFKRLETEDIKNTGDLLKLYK

B1: B42-3HA-Mih1 (enzyme, UniProt P23748 1-554)
chain: MNNIFHGTEDECANEDVLSFQKISLKSPFGKKKNIFRNVQTFFKSKSKHSNVDDDLINKENLAFDKSPLLTNHRSKEIDGPSPNIKQLGHRDELDENENENDDIVLSMHFASQTLQSPTRNSSRRSLTNNRDNDLLSRIKYPGSPQRSSSFSRSRSLSRKPSMNSSSNSSRRVQRQDGKIPRSSRKSSQKFSNITQNTLNFTSASSSPLAPNSVGVKCFESCLAKTQIPYYYDDRNSNDFFPRISPETLKNILQNNMCESFYNSCRIIDCRFEYEYTGGHIINSVNIHSRDELEYEFIHKVLHSDTSNNNTLPTLLIIHCEFSSHRGPSLASHLRNCDRIINQDHYPKLFYPDILILDGGYKAVFDNFPELCYPRQYVGMNSQENLLNCEQEMDKFRRESKRFATKNNSFRKLASPSNPNFFYRDSHQSSTTMASSALSFRFEPPPKLSLNHRRVSSGSSLNSSESTGDENFFPILSKSSMSSNSNLSTSHMLLMDGLDTPSYFSFEDERGNHQQVSGDEEQDGDFTFVGSDREDLPRPARRSLFPSLETEDKK
B2: B42-3HA-Swe1 (enzyme, UniProt P32944 1-819)
chain: MSSLDEDEEDFEMLDTENLQFMGKKMFGKQAGEDESDDFAIGGSTPTNKLKFYPYSNNKLTRSTGTLNLSLSNTALSEANSKFLGKIEEEEEEEEEGKDEESVDSRIKRWSPFHENESVTTPITKRSAEKTNSPISLKQWNQRWFPKNDARTENTSSSSSYSVAKPNQSAFTSSGLVSKMSMDTSLYPAKLRIPETPVKKSPLVEGRDHKHVHLSSSKNASSSLSVSPLNFVEDNNLQEDLLFSDSPSSKALPSIHVPTIDSSPLSEAKYHAHDRHNNQTNILSPTNSLVTNSSPQTLHSNKFKKIKRARNSVILKNRELTNSLQQFKDDLYGTDENFPPPIIISSHHSTRKNPQPYQFRGRYDNDTDEEISTPTRRKSIIGATSQTHRESRPLSLSSAIVTNTTSAETHSISSTDSSPLNSKRRLISSNKLSANPDSHLFEKFTNVHSIGKGQFSTVYQVTFAQTNKKYAIKAIKPNKYNSLKRILLEIKILNEVTNQITMDQEGKEYIIDYISSWKFQNSYYIMTELCENGNLDGFLQEQVIAKKKRLEDWRIWKIIVELSLALRFIHDSCHIVHLDLKPANVMITFEGNLKLGDFGMATHLPLEDKSFENEGDREYIAPEIISDCTYDYKADIFSLGLMIVEIAANVVLPDNGNAWHKLRSGDLSDAGRLSSTDIHSESLFSDITKVDTNDLFDFERDNISGNSNNAGTSTVHNNSNINNPNMNNGNDNNNVNTAATKNRLILHKSSKIPAWVPKFLIDGESLERIVRWMIEPNYERRPTANQILQTEECLYVEMTRNAGAIIQEDDFGPKPKFFI

Target: T1, LexA-Alk1 (Saccharomyces cerevisiae)
Experiment: two-hybrid; LexA bait (pEG202) and B42-3HA prey (pJG4-5) in EGY42 yeast with lacZ reporter on pSH18-34; patches on selective raffinose/galactose plates with X-Gal, overnight at 28°C

Row | Binder | binding
1 | B1 | no binding
2 | B2 | no binding

Reference: PMC7876276
